This is one part of the list.
Legend:
Test in all cases: log2 fold change, soluble protein after heating vs DMSO (PISA); higher = thermal stabilisation; K562 lysate, 10 uM; active = over 0.2 and 3.5 SD of the protein, either way, in both replicates (recomputed)
erlotinib = compound: C#Cc1cccc(Nc2ncnc3cc(OCCOC)c(OCCOC)cc23)c1 [erlotinib]
In short: (§1)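 Values give the log-two fold change in thermal stability against solvent controls, from duplicates. Crude K562 extract at 1 mg/mL protein, made by dounce homogenisation in PBS pH 7.4 with 1 mM MgCl2, was treated with 10 μM compound for 30 min. After 3 min heating across 48°C-58°C, aliquots were pooled, adjusted to 0.5% NP-40 at 4°C and centrifuged at 21,000xg for 90 min. The supernatant was measured by TMTpro 16plex LC-MS/MS with channel sums equalised.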

The chains behind the UniProt entries cited, without tags or fusion partners. Where a name states a change or a piece, a line headed by the entry shows the natural chain unless it says otherwise.
UniProt Q8IXH7, whole entry, looked up: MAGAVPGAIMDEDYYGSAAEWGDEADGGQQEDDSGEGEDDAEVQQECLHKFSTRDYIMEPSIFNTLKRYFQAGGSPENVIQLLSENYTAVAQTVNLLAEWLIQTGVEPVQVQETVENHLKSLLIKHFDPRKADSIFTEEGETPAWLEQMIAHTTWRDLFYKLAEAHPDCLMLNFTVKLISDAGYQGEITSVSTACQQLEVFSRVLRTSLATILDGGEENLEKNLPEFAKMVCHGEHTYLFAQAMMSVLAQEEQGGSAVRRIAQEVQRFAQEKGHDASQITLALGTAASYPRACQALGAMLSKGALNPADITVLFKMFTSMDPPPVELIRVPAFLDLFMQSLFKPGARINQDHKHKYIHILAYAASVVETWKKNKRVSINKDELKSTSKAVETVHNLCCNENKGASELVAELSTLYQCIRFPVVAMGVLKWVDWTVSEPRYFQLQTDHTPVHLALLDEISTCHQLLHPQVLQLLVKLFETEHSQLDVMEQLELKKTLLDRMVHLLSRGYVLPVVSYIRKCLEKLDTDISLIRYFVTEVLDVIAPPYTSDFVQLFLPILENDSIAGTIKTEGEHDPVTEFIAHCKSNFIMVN
UniProt P52848: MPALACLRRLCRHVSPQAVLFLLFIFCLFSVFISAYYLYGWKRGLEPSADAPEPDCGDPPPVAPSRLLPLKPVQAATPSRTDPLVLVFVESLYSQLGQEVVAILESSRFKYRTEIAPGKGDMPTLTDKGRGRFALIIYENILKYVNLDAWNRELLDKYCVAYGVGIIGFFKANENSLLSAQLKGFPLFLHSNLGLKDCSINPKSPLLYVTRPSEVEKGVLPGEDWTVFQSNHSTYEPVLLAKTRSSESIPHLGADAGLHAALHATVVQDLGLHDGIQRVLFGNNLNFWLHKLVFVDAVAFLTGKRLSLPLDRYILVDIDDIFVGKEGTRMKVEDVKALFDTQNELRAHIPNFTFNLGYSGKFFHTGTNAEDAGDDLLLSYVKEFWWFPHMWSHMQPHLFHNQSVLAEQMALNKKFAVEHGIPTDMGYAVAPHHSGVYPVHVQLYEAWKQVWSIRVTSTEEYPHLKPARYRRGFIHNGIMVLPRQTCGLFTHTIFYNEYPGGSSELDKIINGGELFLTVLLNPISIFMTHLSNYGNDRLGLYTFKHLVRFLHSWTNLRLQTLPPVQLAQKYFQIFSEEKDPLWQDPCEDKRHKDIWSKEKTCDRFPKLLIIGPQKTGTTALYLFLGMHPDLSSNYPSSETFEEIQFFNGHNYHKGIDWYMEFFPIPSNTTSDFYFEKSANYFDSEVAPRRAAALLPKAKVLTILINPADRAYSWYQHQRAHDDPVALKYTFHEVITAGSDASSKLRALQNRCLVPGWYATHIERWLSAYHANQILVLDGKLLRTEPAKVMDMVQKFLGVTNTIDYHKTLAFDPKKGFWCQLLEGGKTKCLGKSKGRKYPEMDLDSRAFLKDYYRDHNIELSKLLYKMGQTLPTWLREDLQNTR
UniProt Q8N5F7: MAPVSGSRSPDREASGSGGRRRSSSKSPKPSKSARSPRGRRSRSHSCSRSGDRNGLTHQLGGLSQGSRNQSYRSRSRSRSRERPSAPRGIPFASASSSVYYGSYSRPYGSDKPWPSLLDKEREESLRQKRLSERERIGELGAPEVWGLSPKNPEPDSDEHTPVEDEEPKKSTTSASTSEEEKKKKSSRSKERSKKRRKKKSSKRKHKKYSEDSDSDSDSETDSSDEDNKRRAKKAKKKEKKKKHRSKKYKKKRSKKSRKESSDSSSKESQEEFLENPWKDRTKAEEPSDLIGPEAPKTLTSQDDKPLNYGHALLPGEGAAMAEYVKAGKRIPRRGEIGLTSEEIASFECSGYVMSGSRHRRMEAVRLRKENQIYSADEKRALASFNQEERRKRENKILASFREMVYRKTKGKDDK
UniProt P56556, whole entry, looked up: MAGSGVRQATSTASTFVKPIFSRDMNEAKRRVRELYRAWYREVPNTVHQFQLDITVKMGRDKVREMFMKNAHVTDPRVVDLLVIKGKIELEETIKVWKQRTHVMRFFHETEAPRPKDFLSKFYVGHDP
UniProt Q9NVZ3: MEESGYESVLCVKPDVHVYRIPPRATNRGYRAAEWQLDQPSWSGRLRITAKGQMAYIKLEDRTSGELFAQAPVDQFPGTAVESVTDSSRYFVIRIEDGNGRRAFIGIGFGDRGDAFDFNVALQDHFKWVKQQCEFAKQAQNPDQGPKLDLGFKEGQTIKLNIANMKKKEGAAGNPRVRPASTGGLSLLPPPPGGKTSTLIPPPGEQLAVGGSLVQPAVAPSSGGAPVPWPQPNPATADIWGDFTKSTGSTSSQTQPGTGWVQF
UniProt Q9UHB4: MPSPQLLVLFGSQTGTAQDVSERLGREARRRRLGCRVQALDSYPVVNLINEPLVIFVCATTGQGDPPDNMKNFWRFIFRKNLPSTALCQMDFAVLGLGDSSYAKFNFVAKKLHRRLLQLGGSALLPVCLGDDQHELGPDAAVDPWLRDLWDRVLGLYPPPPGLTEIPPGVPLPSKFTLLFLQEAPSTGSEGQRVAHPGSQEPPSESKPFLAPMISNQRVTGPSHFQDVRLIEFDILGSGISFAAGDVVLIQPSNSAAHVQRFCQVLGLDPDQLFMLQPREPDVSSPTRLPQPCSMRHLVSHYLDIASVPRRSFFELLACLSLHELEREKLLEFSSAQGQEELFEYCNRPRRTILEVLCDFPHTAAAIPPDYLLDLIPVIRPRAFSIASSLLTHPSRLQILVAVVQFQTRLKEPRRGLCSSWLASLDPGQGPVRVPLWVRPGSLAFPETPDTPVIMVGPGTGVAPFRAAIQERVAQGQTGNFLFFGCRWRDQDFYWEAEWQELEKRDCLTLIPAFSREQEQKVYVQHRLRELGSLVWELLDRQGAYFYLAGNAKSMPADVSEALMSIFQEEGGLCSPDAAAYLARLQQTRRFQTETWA
UniProt O00483, whole entry, looked up: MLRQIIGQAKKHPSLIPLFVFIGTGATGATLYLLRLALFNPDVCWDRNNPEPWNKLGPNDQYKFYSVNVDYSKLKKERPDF
UniProt Q9P0J0, whole entry, looked up: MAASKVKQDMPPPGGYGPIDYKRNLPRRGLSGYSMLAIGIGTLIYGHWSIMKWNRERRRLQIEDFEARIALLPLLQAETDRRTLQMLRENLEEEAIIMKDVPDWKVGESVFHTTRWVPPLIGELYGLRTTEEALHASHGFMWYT
UniProt Q9UQ49: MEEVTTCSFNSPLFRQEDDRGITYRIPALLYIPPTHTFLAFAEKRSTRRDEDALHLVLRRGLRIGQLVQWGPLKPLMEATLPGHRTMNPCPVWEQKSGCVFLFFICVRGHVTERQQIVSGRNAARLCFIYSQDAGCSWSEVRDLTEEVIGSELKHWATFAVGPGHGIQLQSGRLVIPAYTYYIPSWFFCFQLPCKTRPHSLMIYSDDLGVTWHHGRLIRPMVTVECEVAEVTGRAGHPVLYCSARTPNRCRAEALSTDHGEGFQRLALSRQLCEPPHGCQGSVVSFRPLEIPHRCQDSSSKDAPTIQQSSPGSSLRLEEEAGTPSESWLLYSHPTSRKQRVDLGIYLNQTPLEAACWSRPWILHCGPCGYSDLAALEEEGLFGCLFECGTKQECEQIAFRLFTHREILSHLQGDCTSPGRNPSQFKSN
UniProt P52849: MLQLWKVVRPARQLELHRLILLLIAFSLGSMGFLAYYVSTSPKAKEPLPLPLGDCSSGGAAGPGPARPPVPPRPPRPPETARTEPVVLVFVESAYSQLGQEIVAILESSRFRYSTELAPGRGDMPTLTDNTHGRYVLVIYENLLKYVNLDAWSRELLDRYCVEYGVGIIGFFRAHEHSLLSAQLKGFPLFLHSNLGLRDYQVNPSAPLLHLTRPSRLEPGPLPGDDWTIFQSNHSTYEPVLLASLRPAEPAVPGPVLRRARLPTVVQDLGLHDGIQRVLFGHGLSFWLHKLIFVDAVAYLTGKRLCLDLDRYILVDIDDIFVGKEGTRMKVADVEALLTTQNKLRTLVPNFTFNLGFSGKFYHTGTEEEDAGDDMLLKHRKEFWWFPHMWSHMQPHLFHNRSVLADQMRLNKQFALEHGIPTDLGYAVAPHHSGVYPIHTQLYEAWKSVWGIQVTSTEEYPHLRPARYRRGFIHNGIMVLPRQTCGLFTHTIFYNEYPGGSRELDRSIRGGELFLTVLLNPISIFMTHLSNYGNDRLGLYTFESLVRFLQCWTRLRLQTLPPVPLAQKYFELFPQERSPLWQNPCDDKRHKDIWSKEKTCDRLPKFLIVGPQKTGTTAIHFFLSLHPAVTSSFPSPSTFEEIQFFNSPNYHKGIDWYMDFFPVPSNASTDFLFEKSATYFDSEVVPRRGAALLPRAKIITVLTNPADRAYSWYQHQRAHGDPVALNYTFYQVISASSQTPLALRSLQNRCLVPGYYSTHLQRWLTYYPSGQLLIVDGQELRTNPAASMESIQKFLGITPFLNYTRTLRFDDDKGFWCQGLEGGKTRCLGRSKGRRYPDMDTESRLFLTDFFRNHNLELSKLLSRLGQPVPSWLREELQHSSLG
UniProt P46934: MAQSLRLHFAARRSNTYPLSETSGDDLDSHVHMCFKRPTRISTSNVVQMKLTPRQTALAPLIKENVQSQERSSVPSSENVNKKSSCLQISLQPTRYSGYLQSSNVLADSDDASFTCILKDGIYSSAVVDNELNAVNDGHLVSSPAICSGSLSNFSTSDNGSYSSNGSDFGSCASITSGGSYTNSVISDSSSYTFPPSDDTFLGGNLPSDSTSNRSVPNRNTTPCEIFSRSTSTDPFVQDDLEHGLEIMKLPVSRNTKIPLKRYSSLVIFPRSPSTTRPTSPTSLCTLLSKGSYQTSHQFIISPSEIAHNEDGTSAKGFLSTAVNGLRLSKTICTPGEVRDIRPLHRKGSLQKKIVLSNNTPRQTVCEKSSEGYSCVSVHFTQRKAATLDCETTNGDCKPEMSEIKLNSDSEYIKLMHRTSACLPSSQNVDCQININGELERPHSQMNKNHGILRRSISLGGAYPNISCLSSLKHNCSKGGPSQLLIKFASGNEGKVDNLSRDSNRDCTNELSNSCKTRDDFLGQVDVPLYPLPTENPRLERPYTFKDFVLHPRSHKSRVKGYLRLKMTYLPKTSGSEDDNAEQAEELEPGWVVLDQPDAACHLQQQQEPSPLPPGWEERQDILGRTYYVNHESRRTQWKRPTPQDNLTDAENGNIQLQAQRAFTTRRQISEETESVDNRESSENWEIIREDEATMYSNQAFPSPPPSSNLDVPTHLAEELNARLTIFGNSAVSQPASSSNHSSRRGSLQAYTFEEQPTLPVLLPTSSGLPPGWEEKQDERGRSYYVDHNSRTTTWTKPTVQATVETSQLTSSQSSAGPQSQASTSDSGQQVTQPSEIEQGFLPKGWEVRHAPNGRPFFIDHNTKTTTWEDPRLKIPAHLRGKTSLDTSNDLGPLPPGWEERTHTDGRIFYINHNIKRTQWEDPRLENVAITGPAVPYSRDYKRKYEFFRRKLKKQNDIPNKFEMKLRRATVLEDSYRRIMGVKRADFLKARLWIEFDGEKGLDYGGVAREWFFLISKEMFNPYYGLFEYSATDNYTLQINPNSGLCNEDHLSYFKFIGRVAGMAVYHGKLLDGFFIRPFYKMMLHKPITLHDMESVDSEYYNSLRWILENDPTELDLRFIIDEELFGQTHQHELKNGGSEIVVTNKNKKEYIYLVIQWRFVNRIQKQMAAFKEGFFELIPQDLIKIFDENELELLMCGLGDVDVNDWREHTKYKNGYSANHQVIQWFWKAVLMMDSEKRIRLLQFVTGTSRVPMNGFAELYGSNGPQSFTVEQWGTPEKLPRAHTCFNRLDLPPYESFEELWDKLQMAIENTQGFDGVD
UniProt Q9UMX5: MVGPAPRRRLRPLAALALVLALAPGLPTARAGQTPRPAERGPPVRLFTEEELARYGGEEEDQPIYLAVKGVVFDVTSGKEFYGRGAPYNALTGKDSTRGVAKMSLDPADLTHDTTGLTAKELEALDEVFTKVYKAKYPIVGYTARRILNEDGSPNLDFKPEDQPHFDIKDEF
UniProt O14777: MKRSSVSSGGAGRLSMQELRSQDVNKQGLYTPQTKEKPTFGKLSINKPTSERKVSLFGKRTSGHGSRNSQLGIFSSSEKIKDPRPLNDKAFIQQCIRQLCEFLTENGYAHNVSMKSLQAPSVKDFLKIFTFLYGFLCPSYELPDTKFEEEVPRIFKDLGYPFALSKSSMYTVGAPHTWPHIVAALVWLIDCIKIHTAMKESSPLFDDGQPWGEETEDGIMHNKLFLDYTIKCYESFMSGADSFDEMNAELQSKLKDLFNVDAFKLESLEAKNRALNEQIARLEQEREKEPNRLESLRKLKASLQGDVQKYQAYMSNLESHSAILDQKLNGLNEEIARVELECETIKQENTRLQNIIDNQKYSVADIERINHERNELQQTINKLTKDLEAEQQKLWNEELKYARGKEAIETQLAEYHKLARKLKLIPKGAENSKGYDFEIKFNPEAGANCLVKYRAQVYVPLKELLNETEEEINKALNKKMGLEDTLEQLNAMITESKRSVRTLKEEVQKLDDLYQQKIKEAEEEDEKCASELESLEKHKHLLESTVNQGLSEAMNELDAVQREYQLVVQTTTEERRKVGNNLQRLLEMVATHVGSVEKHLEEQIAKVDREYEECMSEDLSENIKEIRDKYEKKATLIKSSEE

[1] = compound: C/C(=N\NC(=O)C1=CC(=CC=C1)S(=O)(=O)N2CCOCC2)/C3=C(C=CC(=C3)Cl)O
In short: as §1

[2] = compound: C1=CC(=CC=C1C2=NC3=C(N2)C=C(C=C3)C(=O)N)OC4=CC=C(C=C4)Cl
In short: as §1

[3] = compound: C1=CC2=C(C=CC(=C2)/C=C\3/C(=O)NC(=NCC4=CC=CS4)S3)N=C1
In short: as §1

[4] = compound: C1=CC2=NC=CN=C2C=C1/C=C/3\C(=O)NC(=O)S3
In short: as §1

[5] = compound: C1=CC=C(C=C1)C2=NC(=C(N2)C3=CC=NC=C3)C4=CC(=C(C=C4)Cl)O
In short: as §1

[6] = compound: C1=CC=C2C(=C1)C3=NNC4=CC=CC(=C43)C2=O
In short: as §1

[7] = compound: C1CCN(C1)C(=O)NC2=CC=CC(=C2)NC3=NC=C(C(=N3)NCCC4=CN=CN4)Br
In short: as §1

[8] = compound: C1CN(CCC1(CC2=CC=C(C=C2)Cl)N)C3=NC=NC4=C3C=CN4
In short: as §1

IRAK-1-4 Inhibitor I = compound: C1COCCN1CCN2C3=CC=CC=C3N=C2NC(=O)C4=CC(=CC=C4)[N+](=O)[O-] [IRAK-1-4 Inhibitor I]
In short: as §1

Measured: log2 fold change

NELFCD (UniProt Q8IXH7)
inactive: erlotinib 0.034 | [1] 0.015 | [2] 0.007 | [3] 0.031 | [4] -0.019 | [5] -0.019 | [6] -0.044 | [7] -0.004 | [8] 0.023 | IRAK-1-4 Inhibitor I -0.036

NDUFA3 (UniProt O95167)
inactive: erlotinib 0.011 | [1] -0.036 | [2] -0.045 | [3] 0.017 | [4] -0.108 | [5] -0.008 | [6] -0.115 | [7] -0.042 | [8] 0.006 | IRAK-1-4 Inhibitor I -0.011

NDUFV3 isoform 2 (UniProt P56181)
inactive: erlotinib -0.001 | [1] 0.019 | [2] 0.018 | [3] 0.017 | [4] -0.032 | [5] 0.004 | [6] -0.039 | [7] 0 | [8] 0.015 | IRAK-1-4 Inhibitor I 0.006

NDST1 (UniProt P52848)
inactive: erlotinib -0.016 | [1] 0.106 | [2] 0.029 | [3] 0 | [4] -0.049 | [5] -0.029 | [6] -0.125 | [7] 0.085 | [8] 0.055 | IRAK-1-4 Inhibitor I 0.028

NDUFB10 (UniProt O96000)
inactive: erlotinib 0 | [1] -0.068 | [2] -0.041 | [3] -0.005 | [4] -0.039 | [5] 0.024 | [6] -0.028 | [7] 0.051 | [8] 0.034 | IRAK-1-4 Inhibitor I 0.029

NHP2 (UniProt Q9NX24)
inactive: erlotinib -0.015 | [1] -0.101 | [2] 0.023 | [3] 0.02 | [4] -0.026 | [5] -0.088 | [6] -0.014 | [7] 0.01 | [8] 0.031 | IRAK-1-4 Inhibitor I -0.009

NKAP (UniProt Q8N5F7)
inactive: erlotinib 0.13 | [1] -0.217 | [2] 0.018 | [3] 0.016 | [4] -0.11 | [5] -0.009 | [6] -0.106 | [7] 0.163 | [8] 0.058 | IRAK-1-4 Inhibitor I 0.012

NIT1 (UniProt Q86X76)
inactive: erlotinib -0.001 | [1] 0.045 | [2] -0.004 | [3] -0.011 | [4] -0.002 | [5] -0.015 | [6] -0.012 | [7] -0.008 | [8] 0.023 | IRAK-1-4 Inhibitor I 0.024

NDUFA6 (UniProt P56556)
inactive: erlotinib -0.088 | [1] 0.126 | [2] -0.042 | [3] 0.022 | [4] -0.007 | [5] -0.024 | [6] -0.108 | [7] -0.011 | [8] 0.044 | IRAK-1-4 Inhibitor I -0.05

NIFK (UniProt Q9BYG3)
inactive: erlotinib 0 | [1] -0.05 | [2] -0.01 | [3] -0.009 | [4] 0.032 | [5] 0.038 | [6] 0.01 | [7] -0.02 | [8] -0.005 | IRAK-1-4 Inhibitor I -0.042

NECAP2 (UniProt Q9NVZ3)
inactive: erlotinib 0.017 | [1] -0.017 | [2] 0.014 | [3] -0.022 | [4] -0.002 | [5] 0.033 | [6] 0.061 | [7] 0.022 | [8] 0.02 | IRAK-1-4 Inhibitor I -0.005

2 records picked at random from those above, as already listed:
NDUFA6 (UniProt P56556)
inactive: erlotinib -0.088 | [1] 0.126 | [2] -0.042 | [3] 0.022 | [4] -0.007 | [5] -0.024 | [6] -0.108 | [7] -0.011 | [8] 0.044 | IRAK-1-4 Inhibitor I -0.05

NIFK (UniProt Q9BYG3)
inactive: erlotinib 0 | [1] -0.05 | [2] -0.01 | [3] -0.009 | [4] 0.032 | [5] 0.038 | [6] 0.01 | [7] -0.02 | [8] -0.005 | IRAK-1-4 Inhibitor I -0.042

Following part:

NDUFA5 (UniProt Q16718)
inactive: erlotinib 0.094 | [1] -0.02 | [2] -0.025 | [3] 0.003 | [4] 0.001 | [5] 0.009 | [6] -0.049 | [7] 0.004 | [8] 0.098 | IRAK-1-4 Inhibitor I -0.013

NDOR1 isoform 2 (UniProt Q9UHB4)
inactive: erlotinib 0.063 | [1] -0.011 | [2] 0.006 | [3] -0.078 | [4] -0.034 | [5] -0.017 | [6] -0.098 | [7] -0.01 | [8] 0.079 | IRAK-1-4 Inhibitor I 0.003

NDUFV2 (UniProt P19404)
inactive: erlotinib -0.023 | [1] -0.081 | [2] 0.078 | [3] -0.015 | [4] -0.035 | [5] 0.018 | [6] 0.008 | [7] 0.025 | [8] 0.048 | IRAK-1-4 Inhibitor I 0.005

NDUFAF5 (UniProt Q5TEU4)
inactive: erlotinib -0.001 | [1] 0.027 | [2] 0.016 | [3] 0.021 | [4] -0.022 | [5] 0.009 | [6] 0.11 | [7] 0.193 | [8] -0.056 | IRAK-1-4 Inhibitor I 0.07

NELFE (UniProt P18615)
inactive: erlotinib -0.009 | [1] -0.043 | [2] -0.002 | [3] -0.013 | [4] -0.01 | [5] 0.037 | [6] -0.021 | [7] -0.003 | [8] 0.008 | IRAK-1-4 Inhibitor I 0.012

NKX2-2 (UniProt O95096)
inactive: erlotinib 0.146 | [1] 0.049 | [2] 0.17 | [3] -0.04 | [4] 0.007 | [5] -0.048 | [6] -0.129 | [7] 0.009 | [8] 0.086 | IRAK-1-4 Inhibitor I 0.026

NEK9 (UniProt Q8TD19)
inactive: erlotinib -0.008 | [1] 0.038 | [2] -0.028 | [3] -0.022 | [4] -0.021 | [5] -0.013 | [6] 0.154 | [7] 0.083 | [8] -0.009 | IRAK-1-4 Inhibitor I 0.142

NDUFA4 (UniProt O00483)
inactive: erlotinib 0.038 | [1] 0.092 | [2] -0.012 | [3] 0.055 | [4] 0.009 | [5] 0.055 | [6] 0.046 | [7] 0.012 | [8] 0.001 | IRAK-1-4 Inhibitor I -0.01

NDUFA13 (UniProt Q9P0J0)
inactive: erlotinib 0.064 | [1] 0.029 | [2] -0.053 | [3] 0.019 | [4] -0.008 | [5] 0.025 | [6] -0.049 | [7] 0.012 | [8] -0.011 | IRAK-1-4 Inhibitor I 0.011

NIBAN1 (UniProt Q9BZQ8)
inactive: erlotinib 0.048 | [1] -0.025 | [2] 0.017 | [3] 0.011 | [4] 0.002 | [5] 0.009 | [6] -0.039 | [7] -0.003 | [8] 0.002 | IRAK-1-4 Inhibitor I 0.023

NEU3 isoform 2 (UniProt Q9UQ49)
inactive: erlotinib 0.046 | [1] -0.056 | [2] -0.087 | [3] -0.035 | [4] 0.113 | [5] 0.048 | [6] 0.135 | [7] -0.028 | [8] -0.117 | IRAK-1-4 Inhibitor I 0.067

NDST2 (UniProt P52849)
inactive: erlotinib 0.063 | [1] -0.019 | [2] -0.096 | [3] -0.048 | [4] -0.163 | [5] -0.073 | [6] -0.007 | [7] -0.239 | [8] 0.109 | IRAK-1-4 Inhibitor I -0.005

NEDD4 isoform 4 (UniProt P46934)
inactive: erlotinib -0.001 | [1] -0.057 | [2] 0.023 | [3] 0.018 | [4] 0.052 | [5] -0.004 | [6] -0.023 | [7] -0.005 | [8] -0.031 | IRAK-1-4 Inhibitor I -0.007

NENF (UniProt Q9UMX5)
inactive: erlotinib -0.019 | [1] 0.03 | [2] 0.051 | [3] -0.008 | [4] -0.027 | [5] 0 | [6] 0 | [7] -0.007 | [8] 0.02 | IRAK-1-4 Inhibitor I 0.012

NDUFB9 (UniProt Q9Y6M9)
inactive: erlotinib -0.046 | [1] 0.15 | [2] -0.076 | [3] 0.01 | [4] 0.015 | [5] -0.002 | [6] 0.031 | [7] 0.031 | [8] -0.068 | IRAK-1-4 Inhibitor I -0.005

NDC80 (UniProt O14777)
inactive: erlotinib 0.016 | [1] 0.007 | [2] -0.031 | [3] 0.016 | [4] 0.003 | [5] 0.001 | [6] -0.004 | [7] 0 | [8] -0.011 | IRAK-1-4 Inhibitor I -0.035

NFE2 (UniProt Q16621)
inactive: erlotinib -0.01 | [1] 0.059 | [2] -0.034 | [3] -0.014 | [4] 0.06 | [5] 0.022 | [6] -0.044 | [7] 0.017 | [8] -0.002 | IRAK-1-4 Inhibitor I 0.025

NFAT5 isoform 5 (UniProt O94916)
inactive: erlotinib -0.06 | [1] -0.012 | [2] 0.016 | [3] -0.036 | [4] 0.049 | [5] -0.008 | [6] -0.012 | [7] -0.006 | [8] 0.02 | IRAK-1-4 Inhibitor I 0.047

NDRG3 (UniProt Q9UGV2)
inactive: erlotinib 0.01 | [1] -0.008 | [2] 0.018 | [3] -0.012 | [4] -0.019 | [5] 0.003 | [6] -0.009 | [7] -0.004 | [8] 0.018 | IRAK-1-4 Inhibitor I 0.011

From the supplement of paper PMC10849652
